Measured values published in article PMC9944699.
These are yes or no findings as the source states them, for the method shown. In cells and extracts the contact can be indirect. Some entries that bind do so weakly or less than the wild type.

Protein sequences, listed by entry. Tags and fused reporters are not part of them. Residues count along the entry.
UniProt P35968, residues 20-1356: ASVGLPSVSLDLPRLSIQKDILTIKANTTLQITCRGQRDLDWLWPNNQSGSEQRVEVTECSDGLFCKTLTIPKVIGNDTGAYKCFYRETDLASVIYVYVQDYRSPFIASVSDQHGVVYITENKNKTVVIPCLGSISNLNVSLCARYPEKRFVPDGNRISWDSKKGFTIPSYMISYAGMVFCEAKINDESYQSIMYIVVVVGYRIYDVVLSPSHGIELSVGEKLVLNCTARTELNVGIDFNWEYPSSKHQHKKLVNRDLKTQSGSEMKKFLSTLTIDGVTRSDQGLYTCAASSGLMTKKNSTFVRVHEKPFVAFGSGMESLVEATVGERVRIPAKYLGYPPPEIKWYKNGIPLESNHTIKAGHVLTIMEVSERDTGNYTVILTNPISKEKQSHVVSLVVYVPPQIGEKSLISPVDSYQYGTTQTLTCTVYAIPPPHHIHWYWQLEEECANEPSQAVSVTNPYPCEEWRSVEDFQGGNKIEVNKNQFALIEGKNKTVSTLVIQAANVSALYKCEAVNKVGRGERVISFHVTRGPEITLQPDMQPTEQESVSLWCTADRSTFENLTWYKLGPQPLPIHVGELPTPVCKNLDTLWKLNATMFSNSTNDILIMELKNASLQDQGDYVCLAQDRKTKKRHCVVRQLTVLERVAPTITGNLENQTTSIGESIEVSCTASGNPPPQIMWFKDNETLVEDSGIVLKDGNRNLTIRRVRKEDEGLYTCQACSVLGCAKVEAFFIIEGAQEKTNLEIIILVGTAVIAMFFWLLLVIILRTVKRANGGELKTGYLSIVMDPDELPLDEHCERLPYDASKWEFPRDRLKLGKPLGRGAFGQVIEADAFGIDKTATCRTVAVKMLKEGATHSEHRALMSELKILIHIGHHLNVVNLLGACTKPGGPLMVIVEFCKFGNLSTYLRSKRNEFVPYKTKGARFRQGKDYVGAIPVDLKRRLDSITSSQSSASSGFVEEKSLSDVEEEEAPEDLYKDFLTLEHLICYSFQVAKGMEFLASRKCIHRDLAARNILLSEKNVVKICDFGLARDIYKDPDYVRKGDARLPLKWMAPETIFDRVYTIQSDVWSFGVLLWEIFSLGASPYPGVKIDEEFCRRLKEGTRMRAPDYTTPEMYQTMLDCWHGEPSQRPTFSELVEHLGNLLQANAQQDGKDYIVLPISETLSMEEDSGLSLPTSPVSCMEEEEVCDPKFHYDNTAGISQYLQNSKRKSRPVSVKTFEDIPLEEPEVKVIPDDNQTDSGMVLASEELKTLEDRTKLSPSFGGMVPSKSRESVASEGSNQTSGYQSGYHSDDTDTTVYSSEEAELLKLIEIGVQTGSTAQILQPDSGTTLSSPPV
UniProt Q16665: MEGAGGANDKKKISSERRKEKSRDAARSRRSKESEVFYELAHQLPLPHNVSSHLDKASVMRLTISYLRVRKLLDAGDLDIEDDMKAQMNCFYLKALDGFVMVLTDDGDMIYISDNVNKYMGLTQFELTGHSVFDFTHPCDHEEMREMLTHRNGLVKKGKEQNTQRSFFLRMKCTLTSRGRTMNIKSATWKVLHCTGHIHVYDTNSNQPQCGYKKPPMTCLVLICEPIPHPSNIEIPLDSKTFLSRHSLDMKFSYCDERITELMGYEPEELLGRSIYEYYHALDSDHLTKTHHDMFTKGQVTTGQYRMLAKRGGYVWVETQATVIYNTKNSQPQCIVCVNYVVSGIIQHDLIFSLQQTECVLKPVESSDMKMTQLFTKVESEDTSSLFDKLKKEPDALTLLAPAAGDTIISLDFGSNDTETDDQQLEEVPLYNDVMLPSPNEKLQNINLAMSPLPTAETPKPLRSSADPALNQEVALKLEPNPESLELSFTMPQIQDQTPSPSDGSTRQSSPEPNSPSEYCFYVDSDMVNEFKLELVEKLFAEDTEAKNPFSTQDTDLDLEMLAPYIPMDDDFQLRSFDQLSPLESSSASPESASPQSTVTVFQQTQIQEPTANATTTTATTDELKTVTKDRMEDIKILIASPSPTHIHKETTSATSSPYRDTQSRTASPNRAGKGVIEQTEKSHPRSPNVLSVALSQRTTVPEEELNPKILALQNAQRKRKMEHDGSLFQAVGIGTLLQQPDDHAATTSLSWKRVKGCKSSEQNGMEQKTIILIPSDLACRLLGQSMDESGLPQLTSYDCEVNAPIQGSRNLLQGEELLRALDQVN

Biological target: VEGFR2 (human (endogenous in HUVEC)) (UniProt P35968)
Assay: co-IP; endogenous proteins in RIPA lysate of HUVEC (methods: HUVEC-C) after 200 μM CoCl2 treatment; precleared lysate incubated with HIF-1α and VEGFR2 antibodies 1 h at 4°C, Protein A/G agarose beads overnight at 4°C; western blotting

In the case of HIF-1a (from UniProt Q16665 1-826), the binding is reported as “binds”.
